Results on two molecules are retold here after doi:10.1101/2025.02.14.637896 (bioRxiv, 2025).

Results are given in words; binding and its absence hold for the method and conditions named. Some binding calls cover weakened binding; strength is not graded here.

Assay [1] has as its target GIRK2 R92F channel (G protein-gated inwardly rectifying potassium channel 2, R92F substitution) (mouse) (UniProt P48542). Description: cryo-EM structure.
The target in assay [2] is GIRK2 R92Q channel (G protein-gated inwardly rectifying potassium channel 2, R92Q substitution) (mouse) (UniProt P48542). Description: cryo-EM structure.

B1: GIRK2 R92F channel (G protein-gated inwardly rectifying potassium channel 2, R92F substitution) (natural protein, mouse, UniProt P48542 1-425, looked up)
chain: MTMAKLTESMTNVLEGDSMDQDVESPVAIHQPKLPKQARDDLPRHISRDRTKRKIQRYVRKDGKCNVHHGNVRETYRYLTDIFTTLVDLKWFFNLLIFVMVYTVTWLFFGMIWWLIAYIRGDMDHIEDPSWTPCVTNLNGFVSAFLFSIETETTIGYGYRVITDKCPEGIILLLIQSVLGSIVNAFMVGCMFVKISQPKKRAETLVFSTHAVISMRDGKLCLMFRVGDLRNSHIVEASIRAKLIKSKQTSEGEFIPLNQSDINVGYYTGDDRLFLVSPLIISHEINQQSPFWEISKAQLPKEELEIVVILEGIVEATGMTCQARSSYITSEILWGYRFTPVLTMEDGFYEVDYNSFHETYETSTPSLSAKELAELANRAEVPLSWSVSSKLNQHAELETEEEEKNPEELTERNGDVANLENESKV
B1: the binding result in assay [1] was “binds”.

B2: GIRK2 R92Q channel (G protein-gated inwardly rectifying potassium channel 2, R92Q substitution) (protein, UniProt P48542 1-425)
chain: MTMAKLTESMTNVLEGDSMDQDVESPVAIHQPKLPKQARDDLPRHISRDRTKRKIQRYVRKDGKCNVHHGNVRETYRYLTDIFTTLVDLKWQFNLLIFVMVYTVTWLFFGMIWWLIAYIRGDMDHIEDPSWTPCVTNLNGFVSAFLFSIETETTIGYGYRVITDKCPEGIILLLIQSVLGSIVNAFMVGCMFVKISQPKKRAETLVFSTHAVISMRDGKLCLMFRVGDLRNSHIVEASIRAKLIKSKQTSEGEFIPLNQSDINVGYYTGDDRLFLVSPLIISHEINQQSPFWEISKAQLPKEELEIVVILEGIVEATGMTCQARSSYITSEILWGYRFTPVLTMEDGFYEVDYNSFHETYETSTPSLSAKELAELANRAEVPLSWSVSSKLNQHAELETEEEEKNPEELTERNGDVANLENESKV
With B2, in assay [2], the binding entry is “binds”.
